## Screening data, single-dose tests

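Whole-parasite assay of Trypanosoma brucei over 72 hours; the read-out is not stated. Tested at 30 µM. Direction is inferred from retests: higher values go with stronger inhibition. Values scatter widely below zero; nearly all retest evidence comes from the higher of the two concentrations used. Size under these conditions: about 64,000 compounds, about 940 of them at 50% or above in at least one test.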

Each number is a percent effect as filed.
The record does not define 0% and 100%; most values in the screen are far below 50% and negative numbers occur (in some assays of this library far below -100).
Compounds were drawn at random from those tested, without regard to their results.

Compound	Percent Effect
O=C1CC[C@@H](CN(Cc2ccncc2)Cc2nc(CC3CC3)no2)N1	14.73
O=C(NCCCn1cncn1)N1CCC(N2CCCCC2)CC1	11.29
COc1cccc(CN2CCC(O)(c3ccc(C)cn3)CC2)c1OC	-256.8
Cc1nn(C)c(C)c1CCC(=O)N1CCCC(n2cncn2)C1 (stereo not shown)	-2.063
O=C(O)C(F)(F)F.[H][C@@]12CCN(Cc3ccc4c(c3)OCO4)C[C@]1(C(=O)NC1CC1)CCO2	-33.25
Cc1nnc(CN(C)CCOc2cccc(Cl)c2)o1	-7.246
CCOc1ccc(S(=O)(=O)NC(=O)c2c(C)noc2C(C)C)cc1	42.61
CCC(=O)Nc1nnc(CCOc2ccccc2OC)s1	-13.73
[H][C@@]12CCN(c3cc(OC)ncn3)C[C@]1(COc1nccc(C)n1)CCO2	-2.566
CCc1cnc(C)nc1N1CCN(Cc2ccc(-c3cc[nH]n3)o2)CC1	-39.24
CCn1c(C(=O)N2CCN(CC(C)O)CC2)cc2ccccc21 (stereo not shown)	-10.4
[H][C@]12CCC[C@@]1(COC)CN(C(=O)COC)C2	-9.46
O=C(O)C(F)(F)F.O=C(c1ccoc1)N1CCOC2(COCCN(CC3CC3)C2)C1 (stereo not shown)	-1.639
Cc1cc(C(=O)NCCN2CCCC(C)C2)nn1C(C)(C)C (stereo not shown)	-22.04
CCn1nc(C)c(S(=O)(=O)Nc2ccccc2C(=O)OC)c1C	-24.66
CC(CS(C)(=O)=O)N(C)C(=O)NCCCc1ccc(Cl)cc1 (stereo not shown)	-7.335
Cc1cncc(C2CCCN(C(=O)c3ccc(C)[nH]c3=O)C2)n1 (stereo not shown)	6.028
CN1CCN(Cc2cccnc2)C(=O)C12CCN(C1CCOC1)CC2.O=C(O)C(F)(F)F.O=C(O)C(F)(F)F.O=C(O)C(F)(F)F (stereo not shown)	-17.19
Cc1cc(NC(=O)CN(C)CC2CCCN2c2cccnn2)n(C)n1 (stereo not shown)	-43.93
CC[C@@H](Cn1ncc2ccccc2c1=O)NC(=O)c1ccco1	0.4561
Cc1[nH]c(=O)[nH]c(=O)c1CC(=O)N1CCC(Oc2ccc(F)cc2)CC1	-82.12
CCCn1ccnc1CN1C[C@@H](NC(C)=O)[C@H](c2ccc(OC)cc2)C1	11.76
Cc1cscc1C(=O)N1CCCC1CC(=O)c1cnn(C)c1 (stereo not shown)	10.43
CC(Cn1ccnc1)NC(=O)C1(c2ccc(F)cc2)CC1 (stereo not shown)	-2.079
CCC(C)NC(=O)c1snnc1-c1ccc(OC)cc1 (stereo not shown)	0.2171
O=C1OC2(CCN(CC3CCCO3)CC2)CN1CCc1ccccc1 (stereo not shown)	-44.07
O=C(CCc1nnc(-c2ccccc2)o1)N1CCCC1c1ccccn1 (stereo not shown)	5.456
O=C(c1csnn1)N1CCc2[nH]nc(COc3cccc(Cl)c3)c2C1	15.8
CCS(=O)(=O)c1ccc2c(c1)OCCCO2	-20.06
Cc1ccc(N2CCc3ncnc(N(C)C)c3CC2)nn1	-69.22
Cc1ncccc1C(=O)Nc1cccc2c1C(=O)NC2	-26.64
Cc1ncccc1CNCC1CCN(CC(O)c2ccccc2)CC1 (stereo not shown)	36.2
COc1cccc(OC)c1C(=O)NCC(c1cccn1C)N1CCCC1 (stereo not shown)	99.38
Cc1nc(CCCNC(=O)[C@H]2CNC[C@@H](C(=O)N3CCCC3)C2)sc1C	-34.8
CC(NC(=O)N(C)Cc1ccc2c(c1)OCCO2)c1nncn1C (stereo not shown)	-8.786
c1coc(-c2nc(CNC3CCCNC3)no2)c1 (stereo not shown)	-12.54
Cc1noc(CCCC(=O)NCC2CCS(=O)(=O)C2)n1 (stereo not shown)	-25.58
CCN1CCN(C(=O)c2c[nH]c(C(C)C)n2)c2ccccc21	-34.41
Cc1cc(OCC(=O)N2CCCC(c3noc(C(C)C)n3)C2)no1 (stereo not shown)	-19.08
Cc1nc(CN2CCCCC2CCc2cccs2)co1 (stereo not shown)	8.095
Cn1ccnc1C(=O)N1CCC2(CCN2c2ncccn2)C1.O=C(O)C(F)(F)F (stereo not shown)	-37.97
CCOc1cc(/C=C/c2ncc(C(=O)O)s2)cc(Br)c1O	21.05
CN(C)C(=O)COCc1cncc2c1CCN(Cc1ccccc1)C2.O=C(O)C(F)(F)F.O=C(O)C(F)(F)F	-29.82
Cc1ccc(-c2noc(CN3CCOC(CN(C)C)C3)n2)cc1F (stereo not shown)	-41.9
[H][C@@]12CS(=O)(=O)C[C@]1([H])N(C(=O)CCc1ccccc1)CCN2C(=O)N(C)C	13.23
CC(C(=O)N1CCCCC1)N1CCN(c2ncc(Cl)cn2)CC1 (stereo not shown)	-14.08
Cc1nc(CN2CCc3ncnc(-c4ccncc4)c3CC2)cs1.O=C(O)C(F)(F)F.O=C(O)C(F)(F)F	-11.12
CNS(=O)(=O)c1ccc(CNC(=O)NCc2cc[nH]n2)cc1	-13.91
Clc1cccc(-n2cnnn2)c1N1CCCC1	-35.54
CN1CCC(c2nnc(CN3CCOCC3)n2C)CC1	-4.807
CC(=O)Nc1ccc(C(=O)N2CCOc3nc(C)ccc32)cc1	11.85
COCCC(=O)N1CCCC1c1cccc(C)c1C (stereo not shown)	-15.92
COc1ccc(-n2cnc(Cl)c2CO)cc1	-10.27
Cn1ccnc1-c1noc(NCc2ccc(Br)cc2)n1	-11.53

Once more, the final 4:

For CC(=O)Nc1ccc(C(=O)N2CCOc3nc(C)ccc32)cc1 the result was 11.85%.
For COCCC(=O)N1CCCC1c1cccc(C)c1C (stereo not shown) the result was -15.92%.
For COc1ccc(-n2cnc(Cl)c2CO)cc1 the result was -10.27%.
For Cn1ccnc1-c1noc(NCc2ccc(Br)cc2)n1 the result was -11.53%.

From ChEMBL document CHEMBL3988442, “University of Dundee, Small-Polar-MMV Screening Library” (2021).